Among the data in PubChem BioAssay AID180 (DTP/NCI, 2004) are T/C and survivor count values, retold here.

Molecules are shown by their SMILES. The list shows only some results of the screen, not a fair sample: it covers a few groups of compounds. Not every dose and run of a compound is shown. T/C gives the treated animals as a percentage of the vehicle group. Schedules are NCI's codes, read here as Q, the interval in days (D) or hours (H), X, the number of doses. Some T/C values are followed by the survivors on the day toxicity was checked; without a count or a note in brackets, all were alive then. Some doses were run more than once; their values stand side by side, smallest first. Some entries give survivors of the animals treated and no T/C: the source files T/C as zero there, which appears to mark a toxic dose or a test without result, not a measured value. Survivors were counted at the toxicity check; its day is shown where the source gives one, and later deaths do not show.

This assay relates to BDF1 mice, Adenocarcinoma 755 s.c., tumor weight T/C. As to the kind of experiment: NCI In Vivo Anticancer Drug Screen. Data for tumor model Adenocarcinoma 755 (subcutaneous) in B6D2F1 (BDF1) mice. To be noted: T/C endpoint: mean tumor weight, schedule: Q01DX011 (ip), higher T/C = larger tumour; for T/C: evaluated on day 12. How it is done: The antitumor activity of compounds was measured in mice bearing transplantable tumors. Survival or tumor size were measured and the results are expressed as the measurement made in the treated group (T) divided by the measurement made in the vehicle treated control group (C). The tumor model used in this assay is Adenocarcinoma 755 (subcutaneous) in B6D2F1 (BDF1) mice

Where [1] appears, read: dose: 28.0 mg/kg/injection, vehicle: methylcellulose (MC).
Where [2] appears, read: dose: 56.0 mg/kg/injection, vehicle: methylcellulose (MC).
Setting [3] is: dose: 112.0 mg/kg/injection, vehicle: methylcellulose (MC).
[4] abbreviates: dose: 25.0 mg/kg/injection, vehicle: saline.
The mark [5] stands for this setting: dose: 50.0 mg/kg/injection, vehicle: saline.
[6] abbreviates: dose: 100.0 mg/kg/injection, vehicle: saline.
Setting [7] is: dose: 200.0 mg/kg/injection, vehicle: saline.
Setting [8] is: dose: 150.0 mg/kg/injection, vehicle: methylcellulose (MC).

On to `NC(CC(=O)O)c1cccc(N(CCCl)CCCl)c1` (stereo unspecified), for which the T/C runs as follows: (dose: 0.75 mg/kg/injection, vehicle: methylcellulose (MC)) 51 % of control; (dose: 1.5 mg/kg/injection, vehicle: methylcellulose (MC)) 59 % of control; (dose: 3.0 mg/kg/injection, vehicle: methylcellulose (MC)) 40 % of control; (dose: 5.7 mg/kg/injection, vehicle: methylcellulose (MC)) 46 % of control [9 of 10 alive]; (dose: 6.0 mg/kg/injection, vehicle: methylcellulose (MC)) 13 % of control; (dose: 11.3 mg/kg/injection, vehicle: methylcellulose (MC)) 25 % of control. In addition, the T/C is 3 % of control (dose: 22.0 mg/kg/injection, vehicle: carboxymethylcellulose (CMC)); 6 % of control (dose: 22.5 mg/kg/injection, vehicle: methylcellulose (MC)); 5 % of control [7 of 10 alive] (dose: 33.0 mg/kg/injection, vehicle: carboxymethylcellulose (CMC)); 2 % of control [9 of 10 alive] (dose: 45.0 mg/kg/injection, vehicle: methylcellulose (MC)).
As to `O=P(NCCCO)(OCCCCl)N(CCCl)CCCl` (stereo unspecified), the T/C was 71 % of control under setting [1]; 54 % of control under setting [2]; 26 % of control [9 of 10 alive] under setting [3]; 3 % of control [7 of 10 alive] (dose: 225.0 mg/kg/injection, vehicle: methylcellulose (MC)).
As to `NC(Cc1ccc(N(CCCl)CCCl)c(Cl)c1)C(=O)O` (stereo unspecified), the T/C (dose: 1.0 mg/kg/injection, vehicle: methylcellulose (MC)) was 18 % of control [9 of 10 alive]. Under “dose: 2.0 mg/kg/injection, vehicle: methylcellulose (MC)”, the survivor count is 5 of 10.
Turning to `CC(C)N(CCCl)/N=N/c1nc2nc[nH]c(=O)c2[nH]1`, the T/C is, setting by setting: under setting [4], 106 % of control; under setting [5], 92 % of control; under setting [6], 115 % of control; under setting [7], 81 % of control [8 of 10 alive].
Regarding `O=P(NCCCO)(OCCCl)N(CCCl)CCCl` (stereo unspecified), the T/C (dose: 28.0 mg/kg/injection, vehicle: distilled water + alcohol) is 88 % of control [9 of 10 alive]; the T/C (dose: 37.5 mg/kg/injection, vehicle: methylcellulose (MC)) was 73 and 89 % of control [9 of 10 alive]; the T/C (dose: 57.0 mg/kg/injection, vehicle: distilled water + alcohol) was 123 % of control [8 of 10 alive]; the T/C (dose: 75.0 mg/kg/injection, vehicle: methylcellulose (MC)) was 42 and 79 % of control [9 of 10 alive]; the T/C (dose: 113.0 mg/kg/injection, vehicle: distilled water + alcohol) was 85 % of control [9 of 10 alive]; the T/C under setting [8] was 9 % of control. Further, under “dose: 300.0 mg/kg/injection, vehicle: methylcellulose (MC)”, the T/C was 2 [9 of 10 alive] and 25 % of control [8 of 10 alive]. Moreover, the survivor count under setting [8] is given as 6 of 10.
In the case of `COC1OC(CNCCCl)C2OC(C)(C)OC12` (stereo unspecified), the T/C was 78 % of control under setting [4]; 63 and 70 % of control under setting [5]; 69 and 78 % of control under setting [6]; 53 and 60 % of control under setting [7]; 8 % of control (dose: 400.0 mg/kg/injection, vehicle: saline). Besides, the survivor count (dose: 800.0 mg/kg/injection, vehicle: saline) was 0 of 10.
As to `O[C@H](CNCCCl)[C@@H](O)CNCCCl`, the T/C is 73 % of control [9 of 10 alive] (dose: 0.88 mg/kg/injection, vehicle: saline); 62 % of control (dose: 1.75 mg/kg/injection, vehicle: saline); 11 % of control (dose: 3.5 mg/kg/injection, vehicle: saline); 49 % of control (dose: 4.5 mg/kg/injection, vehicle: distilled water + alcohol); 1 % of control (dose: 7.0 mg/kg/injection, vehicle: saline); 41 % of control [8 of 10 alive] (dose: 9.0 mg/kg/injection, vehicle: distilled water + alcohol). Besides, the survivor count is on record as 5 of 10 (dose: 14.0 mg/kg/injection, vehicle: saline) and 2 of 10 (dose: 18.0 mg/kg/injection, vehicle: distilled water + alcohol).
`CCOP(=O)(NCCCO)N(CCCl)CCCl` (stereo unspecified): the T/C by setting is: under setting [1], 75 % of control [9 of 10 alive]; under setting [2], 57 % of control; under setting [3], 11 % of control. Further, the survivor count under setting [8] is 5 of 10.
